Test results published in the supplement of paper PMC10849652.
The list shows a part of the results.

Protein sequences, listed by entry. Tags and fused reporters are not part of them. Lines headed by an entry give the natural chain unless they say otherwise; changes in a name come on top.
UniProt Q5TBA9: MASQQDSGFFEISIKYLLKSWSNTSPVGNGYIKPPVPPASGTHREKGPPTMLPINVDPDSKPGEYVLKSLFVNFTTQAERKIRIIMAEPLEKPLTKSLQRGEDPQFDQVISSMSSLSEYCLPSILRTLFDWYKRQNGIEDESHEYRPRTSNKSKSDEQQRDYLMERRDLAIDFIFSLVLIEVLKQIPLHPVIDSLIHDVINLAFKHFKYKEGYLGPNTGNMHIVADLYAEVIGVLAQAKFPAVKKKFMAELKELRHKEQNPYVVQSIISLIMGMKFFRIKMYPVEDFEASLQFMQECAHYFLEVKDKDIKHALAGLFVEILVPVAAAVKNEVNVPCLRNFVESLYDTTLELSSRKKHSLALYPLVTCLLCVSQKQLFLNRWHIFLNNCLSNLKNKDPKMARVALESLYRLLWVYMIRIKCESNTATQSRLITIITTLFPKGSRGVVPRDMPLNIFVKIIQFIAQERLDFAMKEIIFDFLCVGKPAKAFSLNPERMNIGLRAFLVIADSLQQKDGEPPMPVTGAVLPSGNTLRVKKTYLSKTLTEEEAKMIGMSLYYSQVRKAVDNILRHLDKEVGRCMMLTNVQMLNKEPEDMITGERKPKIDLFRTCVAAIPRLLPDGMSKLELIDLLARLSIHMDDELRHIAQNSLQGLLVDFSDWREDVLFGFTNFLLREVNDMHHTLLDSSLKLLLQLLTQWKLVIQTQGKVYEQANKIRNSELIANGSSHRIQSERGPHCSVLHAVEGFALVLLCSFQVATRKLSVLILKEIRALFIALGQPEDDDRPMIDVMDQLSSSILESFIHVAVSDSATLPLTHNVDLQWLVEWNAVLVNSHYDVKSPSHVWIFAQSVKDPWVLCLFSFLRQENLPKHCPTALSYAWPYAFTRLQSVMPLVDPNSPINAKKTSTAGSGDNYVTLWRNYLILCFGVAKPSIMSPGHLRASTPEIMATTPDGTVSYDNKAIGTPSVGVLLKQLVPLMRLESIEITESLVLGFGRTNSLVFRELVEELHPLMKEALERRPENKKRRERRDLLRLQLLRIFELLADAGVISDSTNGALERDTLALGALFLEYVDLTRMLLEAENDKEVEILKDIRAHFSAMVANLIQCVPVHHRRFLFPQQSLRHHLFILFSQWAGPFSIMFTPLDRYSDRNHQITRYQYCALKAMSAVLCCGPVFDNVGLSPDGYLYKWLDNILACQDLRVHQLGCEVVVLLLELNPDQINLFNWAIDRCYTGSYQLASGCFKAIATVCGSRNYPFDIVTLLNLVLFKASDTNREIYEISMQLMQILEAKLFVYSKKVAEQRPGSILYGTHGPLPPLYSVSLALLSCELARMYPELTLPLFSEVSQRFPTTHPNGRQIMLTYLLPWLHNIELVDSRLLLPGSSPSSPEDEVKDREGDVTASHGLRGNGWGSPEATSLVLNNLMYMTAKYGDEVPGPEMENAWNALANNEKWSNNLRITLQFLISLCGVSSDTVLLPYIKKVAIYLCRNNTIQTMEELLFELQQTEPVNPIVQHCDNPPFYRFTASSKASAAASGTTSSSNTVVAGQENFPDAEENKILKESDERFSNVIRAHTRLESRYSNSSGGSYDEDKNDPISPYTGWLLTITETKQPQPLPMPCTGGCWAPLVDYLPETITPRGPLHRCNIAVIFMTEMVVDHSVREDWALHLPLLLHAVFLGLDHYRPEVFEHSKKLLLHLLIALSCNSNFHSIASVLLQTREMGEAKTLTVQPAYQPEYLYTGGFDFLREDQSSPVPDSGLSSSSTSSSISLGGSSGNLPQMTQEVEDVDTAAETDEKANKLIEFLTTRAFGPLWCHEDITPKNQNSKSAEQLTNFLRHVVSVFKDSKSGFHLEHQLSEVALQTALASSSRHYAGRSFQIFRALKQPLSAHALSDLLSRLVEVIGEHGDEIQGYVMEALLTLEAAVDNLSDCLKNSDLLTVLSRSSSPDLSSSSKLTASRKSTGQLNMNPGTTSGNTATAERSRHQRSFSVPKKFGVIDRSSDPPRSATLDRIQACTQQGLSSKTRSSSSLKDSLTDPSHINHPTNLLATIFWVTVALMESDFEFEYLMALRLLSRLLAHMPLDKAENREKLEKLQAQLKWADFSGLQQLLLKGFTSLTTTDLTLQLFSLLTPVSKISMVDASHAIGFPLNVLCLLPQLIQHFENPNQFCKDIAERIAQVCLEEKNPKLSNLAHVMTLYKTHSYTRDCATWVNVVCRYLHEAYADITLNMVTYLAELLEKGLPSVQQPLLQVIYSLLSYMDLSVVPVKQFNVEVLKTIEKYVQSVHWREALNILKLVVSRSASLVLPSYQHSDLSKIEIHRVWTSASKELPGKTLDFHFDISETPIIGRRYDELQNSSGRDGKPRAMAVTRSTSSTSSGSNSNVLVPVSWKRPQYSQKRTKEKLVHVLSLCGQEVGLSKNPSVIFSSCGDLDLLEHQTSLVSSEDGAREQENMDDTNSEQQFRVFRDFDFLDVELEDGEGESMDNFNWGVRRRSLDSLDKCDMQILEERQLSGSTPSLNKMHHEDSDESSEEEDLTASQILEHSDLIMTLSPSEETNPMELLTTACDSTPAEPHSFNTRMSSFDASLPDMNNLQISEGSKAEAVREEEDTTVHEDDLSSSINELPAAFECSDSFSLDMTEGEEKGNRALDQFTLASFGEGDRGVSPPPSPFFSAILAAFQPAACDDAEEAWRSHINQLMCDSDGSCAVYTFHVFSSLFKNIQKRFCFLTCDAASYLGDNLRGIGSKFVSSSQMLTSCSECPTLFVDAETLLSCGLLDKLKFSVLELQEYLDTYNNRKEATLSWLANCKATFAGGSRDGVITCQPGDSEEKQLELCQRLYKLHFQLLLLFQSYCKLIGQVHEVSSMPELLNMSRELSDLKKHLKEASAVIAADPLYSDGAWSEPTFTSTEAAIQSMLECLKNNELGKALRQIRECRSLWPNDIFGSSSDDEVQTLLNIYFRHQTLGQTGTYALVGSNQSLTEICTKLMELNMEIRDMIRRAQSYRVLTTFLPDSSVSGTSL
UniProt P85037: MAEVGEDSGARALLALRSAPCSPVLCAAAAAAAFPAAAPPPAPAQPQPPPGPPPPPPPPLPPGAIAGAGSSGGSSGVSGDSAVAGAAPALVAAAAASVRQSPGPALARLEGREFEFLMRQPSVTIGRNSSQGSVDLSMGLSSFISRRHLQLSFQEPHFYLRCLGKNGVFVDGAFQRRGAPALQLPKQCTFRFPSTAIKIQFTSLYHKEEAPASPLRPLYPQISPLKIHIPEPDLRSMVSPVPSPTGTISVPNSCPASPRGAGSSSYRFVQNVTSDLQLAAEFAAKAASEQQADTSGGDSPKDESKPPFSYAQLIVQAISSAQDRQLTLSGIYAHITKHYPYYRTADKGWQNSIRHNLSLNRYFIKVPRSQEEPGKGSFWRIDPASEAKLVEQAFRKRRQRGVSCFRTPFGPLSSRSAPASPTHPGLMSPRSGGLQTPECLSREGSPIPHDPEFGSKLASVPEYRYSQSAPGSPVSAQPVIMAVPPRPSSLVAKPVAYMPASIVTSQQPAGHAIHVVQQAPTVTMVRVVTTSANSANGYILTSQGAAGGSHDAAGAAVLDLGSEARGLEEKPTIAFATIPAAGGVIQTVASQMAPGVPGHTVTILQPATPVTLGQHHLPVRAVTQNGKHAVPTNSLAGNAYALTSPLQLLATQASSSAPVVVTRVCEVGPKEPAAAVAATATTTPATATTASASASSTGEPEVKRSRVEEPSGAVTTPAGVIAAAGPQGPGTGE
UniProt Q05932: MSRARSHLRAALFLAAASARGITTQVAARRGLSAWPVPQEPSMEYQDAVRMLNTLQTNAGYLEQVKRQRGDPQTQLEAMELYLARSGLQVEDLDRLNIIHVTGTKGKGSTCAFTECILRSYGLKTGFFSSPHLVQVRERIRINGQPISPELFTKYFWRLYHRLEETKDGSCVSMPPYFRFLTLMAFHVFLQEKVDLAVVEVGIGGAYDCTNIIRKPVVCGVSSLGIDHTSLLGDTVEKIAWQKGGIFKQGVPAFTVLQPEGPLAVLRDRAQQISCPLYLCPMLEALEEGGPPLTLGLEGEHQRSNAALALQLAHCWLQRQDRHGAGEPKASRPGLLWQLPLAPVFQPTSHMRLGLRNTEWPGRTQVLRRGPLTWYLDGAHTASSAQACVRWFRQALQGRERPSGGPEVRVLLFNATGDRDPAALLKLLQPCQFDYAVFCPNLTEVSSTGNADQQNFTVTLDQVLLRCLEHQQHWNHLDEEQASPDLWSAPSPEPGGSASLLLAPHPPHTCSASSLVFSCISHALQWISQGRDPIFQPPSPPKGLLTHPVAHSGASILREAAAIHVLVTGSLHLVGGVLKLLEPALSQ
UniProt Q9BWH2: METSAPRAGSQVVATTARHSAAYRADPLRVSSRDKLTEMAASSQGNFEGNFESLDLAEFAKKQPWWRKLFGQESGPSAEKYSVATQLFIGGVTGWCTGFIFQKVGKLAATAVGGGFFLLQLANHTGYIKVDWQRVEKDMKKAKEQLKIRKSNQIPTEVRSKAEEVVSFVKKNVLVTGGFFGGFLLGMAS
UniProt Q9UET6: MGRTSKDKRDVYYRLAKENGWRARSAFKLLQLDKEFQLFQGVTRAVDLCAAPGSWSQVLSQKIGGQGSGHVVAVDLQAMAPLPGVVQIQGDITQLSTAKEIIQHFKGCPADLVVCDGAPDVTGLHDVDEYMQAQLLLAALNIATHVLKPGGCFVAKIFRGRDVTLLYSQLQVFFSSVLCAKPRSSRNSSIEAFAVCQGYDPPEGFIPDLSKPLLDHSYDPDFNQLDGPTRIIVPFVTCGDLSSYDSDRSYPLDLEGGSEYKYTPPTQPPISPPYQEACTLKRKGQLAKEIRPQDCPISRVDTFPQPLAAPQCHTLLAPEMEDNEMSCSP
UniProt P36268: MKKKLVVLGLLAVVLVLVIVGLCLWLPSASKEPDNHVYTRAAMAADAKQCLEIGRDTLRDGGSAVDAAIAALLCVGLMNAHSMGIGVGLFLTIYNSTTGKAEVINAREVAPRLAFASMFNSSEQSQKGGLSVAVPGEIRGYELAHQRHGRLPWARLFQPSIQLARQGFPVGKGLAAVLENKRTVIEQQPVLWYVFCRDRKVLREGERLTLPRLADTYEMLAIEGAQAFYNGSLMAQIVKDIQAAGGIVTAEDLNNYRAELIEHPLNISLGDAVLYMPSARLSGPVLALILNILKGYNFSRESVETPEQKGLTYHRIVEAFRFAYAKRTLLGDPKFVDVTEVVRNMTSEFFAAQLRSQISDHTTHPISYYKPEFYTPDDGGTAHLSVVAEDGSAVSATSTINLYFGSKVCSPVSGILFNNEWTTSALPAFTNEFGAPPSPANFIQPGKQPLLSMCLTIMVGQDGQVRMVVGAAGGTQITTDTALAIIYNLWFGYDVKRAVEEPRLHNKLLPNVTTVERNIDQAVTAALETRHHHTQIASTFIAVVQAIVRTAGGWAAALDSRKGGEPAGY
UniProt Q86SR1: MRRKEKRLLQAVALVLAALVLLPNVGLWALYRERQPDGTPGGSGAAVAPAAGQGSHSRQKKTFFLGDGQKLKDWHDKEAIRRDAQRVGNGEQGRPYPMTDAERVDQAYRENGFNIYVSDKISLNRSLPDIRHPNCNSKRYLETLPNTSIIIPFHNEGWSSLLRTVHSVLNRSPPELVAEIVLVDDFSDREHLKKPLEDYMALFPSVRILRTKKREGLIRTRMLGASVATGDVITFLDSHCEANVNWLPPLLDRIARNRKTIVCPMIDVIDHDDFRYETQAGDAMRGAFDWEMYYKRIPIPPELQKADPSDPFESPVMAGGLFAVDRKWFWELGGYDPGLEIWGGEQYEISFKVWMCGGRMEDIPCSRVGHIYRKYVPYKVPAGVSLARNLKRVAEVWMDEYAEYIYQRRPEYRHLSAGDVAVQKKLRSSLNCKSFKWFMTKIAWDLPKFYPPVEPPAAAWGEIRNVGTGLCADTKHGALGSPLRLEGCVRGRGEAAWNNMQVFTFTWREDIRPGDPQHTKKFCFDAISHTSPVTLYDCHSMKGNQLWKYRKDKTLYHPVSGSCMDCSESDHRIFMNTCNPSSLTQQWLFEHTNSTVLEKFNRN
UniProt Q06547, whole entry, looked up: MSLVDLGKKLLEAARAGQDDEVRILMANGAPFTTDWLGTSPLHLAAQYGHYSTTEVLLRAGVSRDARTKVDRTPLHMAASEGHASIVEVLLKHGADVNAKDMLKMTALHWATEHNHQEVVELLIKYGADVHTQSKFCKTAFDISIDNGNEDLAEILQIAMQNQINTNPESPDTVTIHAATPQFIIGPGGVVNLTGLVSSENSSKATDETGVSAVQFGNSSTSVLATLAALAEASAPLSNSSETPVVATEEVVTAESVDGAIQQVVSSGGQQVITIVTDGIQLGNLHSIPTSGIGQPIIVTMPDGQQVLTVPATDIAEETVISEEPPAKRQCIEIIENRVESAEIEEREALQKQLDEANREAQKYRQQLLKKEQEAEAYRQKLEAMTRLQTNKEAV
UniProt Q96DB9: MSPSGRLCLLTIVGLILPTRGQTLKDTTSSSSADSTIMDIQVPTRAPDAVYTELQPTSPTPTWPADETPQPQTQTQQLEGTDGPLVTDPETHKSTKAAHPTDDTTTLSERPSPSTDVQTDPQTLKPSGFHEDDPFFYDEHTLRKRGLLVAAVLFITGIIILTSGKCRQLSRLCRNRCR

Tests used:
Experiment in all cases: log2 fold change, soluble protein after heating vs DMSO (PISA); higher = thermal stabilisation; K562 cells, 10 uM, 30 min; active = over 0.2 and 3.5 SD of the protein, either way, in both replicates (recomputed)
[1] = compound: NC(=O)Nc1cc(-c2cccc(F)c2)sc1C(=O)N[C@H]1CCCNC1
How it was run: (§1)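 Quantification of soluble protein used TMTpro 16plex LC-MS/MS, with channel sums equalised. Samples were the supernatant after 21,000xg for 90 min of pooled aliquots from K562 cells (2×10^6 cells/mL) treated with 10 μM compound for 30 min, heated for 3 min over 48°C-58°C, and extracted in PBS with 0.5% NP-40 at 4°C. Values, from duplicates, describe thermal stability against control samples on a log2 fold-change scale.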

[2] = compound: NC(=O)c1cnc(N[C@@H]2CCCC[C@@H]2N)nc1Nc1cccc(-n2nccn2)c1
How it was run: as §1

[3] = compound: NC1(c2ccc(-c3nc4ccn5c(=O)[nH]nc5c4cc3-c3ccccc3)cc2)CCC1
How it was run: as §1

[4] = compound: NCC(=O)Nc1ccc(-n2nc(C(F)(F)F)cc2-c2ccc3c(ccc4ccccc43)c2)cc1
How it was run: as §1

entinostat = compound: Nc1ccccc1NC(=O)c1ccc(CNC(=O)OCc2cccnc2)cc1 [entinostat]
How it was run: as §1

vorinostat = compound: O=C(CCCCCCC(=O)Nc1ccccc1)NO [vorinostat]
How it was run: as §1

citarinostat = compound: O=C(CCCCCCNC(=O)c1cnc(N(c2ccccc2)c2ccccc2Cl)nc1)NO [citarinostat]
How it was run: as §1

silmitasertib = compound: O=C(O)c1ccc2c(c1)nc(Nc1cccc(Cl)c1)c1ccncc12 [silmitasertib]
How it was run: as §1

[5] = compound: O=C1NC(=O)C(c2cnc3ccccn23)=C1c1cn2c3c(cc(F)cc13)CN(C(=O)N1CCCCC1)CC2
How it was run: as §1

[6] = compound: c1cc(OCCN2CCCCC2)cc(-c2n[nH]c3ccc(-c4nnc[nH]4)cc23)c1
How it was run: as §1

Row | Target | log2 fold change [1] | log2 fold change [2] | log2 fold change [3] | log2 fold change [4] | log2 fold change (entinostat) | log2 fold change (vorinostat) | log2 fold change (citarinostat) | log2 fold change (silmitasertib) | log2 fold change [5] | log2 fold change [6]
1 | GAMT (UniProt Q14353) | inactive: 0 | inactive: -0.008 | inactive: -0.13 | inactive: 0.034 | inactive: -0.152 | inactive: 0.025 | inactive: 0.102 | inactive: -0.015 | inactive: -0.062 | inactive: -0.094
2 | GALC (UniProt P54803) | inactive: 0.015 | inactive: 0.016 | inactive: -0.165 | inactive: 0.001 | inactive: -0.012 | inactive: -0.138 | inactive: 0.017 | inactive: 0.042 | inactive: 0 | inactive: 0.096
3 | FRY (UniProt Q5TBA9) | inactive: -0.061 | inactive: 0.072 | inactive: -0.189 | inactive: 0.1 | inactive: 0.072 | inactive: -0.175 | inactive: -0.232 | inactive: 0.079 | inactive: 0.074 | inactive: -0.244
4 | GFM1 (UniProt Q96RP9) | inactive: -0.004 | inactive: -0.046 | inactive: -0.138 | inactive: -0.106 | inactive: 0.056 | inactive: 0.051 | inactive: 0.046 | inactive: -0.024 | inactive: -0.128 | inactive: -0.032
5 | FOXK1 (UniProt P85037) | inactive: 0.497 | inactive: 0.201 | inactive: 0.38 | inactive: 0.096 | inactive: 0 | inactive: -0.15 | inactive: 0.023 | inactive: 0.512 | active: -1.33 | inactive: -0.031
6 | GALT (UniProt P07902) | inactive: -0.011 | inactive: 0.159 | inactive: -0.127 | inactive: 0.095 | inactive: 0.032 | inactive: 0.067 | inactive: -0.144 | inactive: -0.083 | inactive: -0.193 | inactive: 0.564
7 | GARS1 (UniProt H7C443) | inactive: -0.347 | inactive: -0.089 | inactive: 0.008 | inactive: -0.105 | inactive: -0.211 | inactive: -0.229 | inactive: -0.16 | inactive: -0.02 | inactive: -0.274 | inactive: -0.037
8 | FUCA1 (UniProt P04066) | inactive: 0.028 | inactive: -0.028 | active: -0.519 | inactive: -0.03 | inactive: 0.014 | inactive: 0.015 | inactive: 0.096 | inactive: 0.019 | inactive: -0.043 | active: -0.372
9 | GID4 (UniProt Q8IVV7) | inactive: -0.165 | inactive: -0.03 | inactive: -0.032 | inactive: -0.146 | active: 0.289 | inactive: -0.074 | inactive: 0.006 | inactive: 0.118 | inactive: -0.017 | inactive: -0.052
10 | GGA1 isoform 6 (UniProt Q9UJY5) | inactive: 0.025 | inactive: -0.002 | inactive: -0.04 | inactive: -0.025 | inactive: -0.007 | inactive: 0.038 | inactive: 0.067 | inactive: 0.027 | inactive: 0.047 | inactive: -0.002
11 | FZD5 (UniProt Q13467) | inactive: -0.009 | – | inactive: -0.366 | – | inactive: -0.149 | – | – | inactive: 0.234 | inactive: -0.328 | –
12 | FOPNL (UniProt Q96NB1) | inactive: -0.044 | inactive: -0.042 | inactive: -0.01 | inactive: -0.042 | inactive: -0.099 | inactive: 0.184 | – | inactive: 0.005 | inactive: -0.06 | –
13 | GATA2 (UniProt P23769) | inactive: 0.047 | inactive: 0.047 | inactive: 0.016 | inactive: 0.239 | inactive: -0.129 | inactive: 0.055 | inactive: -0.203 | inactive: 0.073 | – | inactive: -0.081
14 | GBA2 (UniProt Q9HCG7) | inactive: -0.008 | inactive: -0.006 | inactive: -0.108 | inactive: -0.129 | inactive: -0.023 | – | inactive: -0.332 | inactive: 0.124 | inactive: -0.027 | inactive: -0.211
15 | GALNT6 (UniProt Q8NCL4) | inactive: 0.023 | inactive: -0.005 | inactive: -0.242 | – | inactive: -0.07 | – | – | inactive: 0.073 | inactive: -0.141 | –
16 | FPGS (UniProt Q05932) | inactive: 0.077 | – | inactive: -0.127 | inactive: -0.093 | inactive: 0.042 | inactive: -0.001 | – | inactive: -0.139 | inactive: 0.347 | –
17 | FUOM (UniProt A2VDF0) | inactive: -0.015 | – | inactive: 0.159 | inactive: 0.057 | inactive: -0.11 | – | inactive: 0.114 | inactive: -0.215 | – | inactive: -0.086

Row | Target | log2 fold change [1] | log2 fold change [2] | log2 fold change [3] | log2 fold change [4] | log2 fold change (entinostat) | log2 fold change (vorinostat) | log2 fold change (citarinostat) | log2 fold change (silmitasertib) | log2 fold change [5] | log2 fold change [6]
18 | FUNDC2 (UniProt Q9BWH2) | inactive: -0.029 | inactive: -0.01 | inactive: 0.001 | inactive: -0.007 | inactive: -0.025 | inactive: -0.022 | inactive: -0.032 | inactive: -0.01 | inactive: -0.025 | inactive: -0.035
19 | GAGE5 (UniProt Q13069) | inactive: -0.057 | inactive: 0.015 | inactive: 0.073 | inactive: -0.023 | inactive: 0.006 | inactive: -0.082 | inactive: 0.005 | inactive: -0.04 | inactive: -0.086 | inactive: -0.063
20 | FTSJ3 (UniProt Q8IY81) | inactive: 0.158 | inactive: -0.026 | – | – | inactive: -0.031 | inactive: -0.184 | – | – | – | –
21 | FTSJ1 isoform 2 (UniProt Q9UET6) | inactive: -0.167 | – | – | – | inactive: 0.192 | – | – | – | – | –
22 | GAS6 isoform 1 (UniProt Q14393) | inactive: -0.122 | – | – | – | inactive: 0.006 | inactive: 0.012 | inactive: 0.038 | – | inactive: 0.023 | inactive: -0.085
23 | FUNDC1 (UniProt Q8IVP5) | inactive: -0.058 | – | inactive: -0.104 | – | inactive: 0.01 | – | – | inactive: 0.055 | – | –
24 | GGT2 isoform 3 (UniProt P36268) | inactive: 0 | inactive: -0.039 | inactive: 0.112 | inactive: 0.003 | inactive: -0.037 | inactive: 0.004 | inactive: -0.058 | inactive: -0.007 | inactive: -0.079 | inactive: -0.056
25 | GCC2 (UniProt Q8IWJ2) | inactive: -0.009 | inactive: -0.005 | inactive: 0.081 | inactive: 0.009 | inactive: 0.03 | inactive: -0.002 | inactive: -0.066 | inactive: 0.212 | inactive: 0.225 | inactive: 0.009
26 | GGT1 (UniProt P19440) | inactive: 0.05 | inactive: 0.157 | inactive: -0.029 | – | inactive: -0.017 | inactive: 0.042 | – | inactive: -0.035 | inactive: -0.023 | –
27 | GALNT10 (UniProt Q86SR1) | inactive: 0.057 | inactive: -0.058 | inactive: -0.111 | – | inactive: -0.021 | inactive: -0.106 | – | inactive: -0.034 | inactive: 0.012 | –
28 | GDAP2 (UniProt Q9NXN4) | inactive: -0.004 | inactive: 0.53 | inactive: 0.04 | – | inactive: -0.264 | – | inactive: 0.083 | inactive: 0.138 | inactive: 0.104 | inactive: -0.228
29 | GATAD2B (UniProt Q8WXI9) | inactive: 0.049 | – | inactive: -0.093 | inactive: -0.079 | inactive: 0.037 | – | inactive: -0.027 | inactive: -0.063 | inactive: 0.069 | inactive: -0.197
30 | GABPB1 (UniProt Q06547) | inactive: -0.042 | – | – | inactive: -0.13 | inactive: 0.116 | – | – | – | – | –
31 | FXYD5 (UniProt Q96DB9) | inactive: -0.251 | inactive: -0.159 | – | inactive: -0.16 | inactive: 0.141 | inactive: -0.13 | – | – | – | –
32 | GAN (UniProt Q9H2C0) | inactive: -0.025 | inactive: -0.1 | inactive: -0.06 | inactive: -0.025 | inactive: -0.01 | inactive: 0.051 | inactive: -0.012 | inactive: -0.011 | inactive: 0.014 | inactive: 0.031
33 | FUT1 (UniProt P19526) | inactive: -0.068 | – | – | – | inactive: -0.095 | – | – | – | inactive: 0.055 | –

Record cards, from the list above. Values in the order: log2 fold change [1]	log2 fold change [2]	log2 fold change [3]	log2 fold change [4]	log2 fold change (entinostat)	log2 fold change (vorinostat)	log2 fold change (citarinostat)	log2 fold change (silmitasertib)	log2 fold change [5]	log2 fold change [6]
GALNT10 (UniProt Q86SR1) in the list: inactive: 0.057	inactive: -0.058	inactive: -0.111	–	inactive: -0.021	inactive: -0.106	–	inactive: -0.034	inactive: 0.012	–
GAN (UniProt Q9H2C0) in the list: inactive: -0.025	inactive: -0.1	inactive: -0.06	inactive: -0.025	inactive: -0.01	inactive: 0.051	inactive: -0.012	inactive: -0.011	inactive: 0.014	inactive: 0.031
